Measured values published in PMC12134225.
These are yes or no findings as the source states them, for the method shown. Binding seen in cells or lysates may run through a third protein. Some entries that bind do so weakly or less than the wild type.

Sequences of proteins named here, by UniProt entry; tags and fusion partners are left off. A change or cut given only in a name is not applied to a line headed by its entry.
UniProt Q96P20: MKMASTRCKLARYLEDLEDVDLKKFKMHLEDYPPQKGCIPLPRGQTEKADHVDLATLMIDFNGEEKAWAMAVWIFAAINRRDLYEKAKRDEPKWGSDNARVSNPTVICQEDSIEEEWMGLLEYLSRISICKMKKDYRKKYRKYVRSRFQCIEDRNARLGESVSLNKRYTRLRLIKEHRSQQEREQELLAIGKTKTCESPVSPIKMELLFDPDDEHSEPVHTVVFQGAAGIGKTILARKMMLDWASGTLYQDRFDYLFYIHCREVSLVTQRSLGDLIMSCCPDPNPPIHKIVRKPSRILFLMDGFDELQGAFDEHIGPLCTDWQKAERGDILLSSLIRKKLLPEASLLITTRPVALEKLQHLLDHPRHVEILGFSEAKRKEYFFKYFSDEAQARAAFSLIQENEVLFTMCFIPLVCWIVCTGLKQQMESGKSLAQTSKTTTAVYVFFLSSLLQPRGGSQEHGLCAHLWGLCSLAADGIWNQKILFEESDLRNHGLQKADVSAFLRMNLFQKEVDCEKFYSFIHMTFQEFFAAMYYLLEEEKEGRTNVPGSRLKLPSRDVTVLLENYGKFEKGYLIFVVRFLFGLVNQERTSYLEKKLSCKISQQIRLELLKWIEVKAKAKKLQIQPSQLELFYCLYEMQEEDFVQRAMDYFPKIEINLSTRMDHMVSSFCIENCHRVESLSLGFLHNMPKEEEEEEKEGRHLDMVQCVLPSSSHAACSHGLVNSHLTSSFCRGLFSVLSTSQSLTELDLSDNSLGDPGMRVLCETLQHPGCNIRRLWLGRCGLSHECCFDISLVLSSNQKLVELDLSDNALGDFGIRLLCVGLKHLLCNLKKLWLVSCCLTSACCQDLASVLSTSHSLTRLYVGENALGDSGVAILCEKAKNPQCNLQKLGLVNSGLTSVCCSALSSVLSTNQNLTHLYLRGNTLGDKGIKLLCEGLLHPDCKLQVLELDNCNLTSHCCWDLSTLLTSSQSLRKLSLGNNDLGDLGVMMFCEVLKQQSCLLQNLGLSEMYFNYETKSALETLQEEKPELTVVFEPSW

target: T1, ZDHHC7 (UniProt Q9NXF8); test: co-IP; cotransfected HEK293T cells, 24 h; lysis buffer with 0.5% Triton X-100, 20 mM HEPES pH 7.4, 150 mM NaCl; anti-GFP or anti-Flag beads overnight at 4 °C; three PBS washes; immunoblot
T1 sequence: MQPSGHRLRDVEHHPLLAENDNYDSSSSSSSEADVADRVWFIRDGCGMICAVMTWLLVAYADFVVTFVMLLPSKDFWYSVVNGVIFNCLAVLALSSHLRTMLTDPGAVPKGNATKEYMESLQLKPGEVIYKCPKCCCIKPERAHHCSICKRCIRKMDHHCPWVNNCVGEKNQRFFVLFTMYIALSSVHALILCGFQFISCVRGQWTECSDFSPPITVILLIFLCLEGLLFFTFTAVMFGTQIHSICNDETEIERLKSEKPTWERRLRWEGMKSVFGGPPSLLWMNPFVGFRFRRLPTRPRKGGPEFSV

Substance | binding
GFP-C261 (GFP fused to hNLRP3 residues 254-268) (from UniProt Q96P20 254-268) (domain or fragment) | binds
GFP-S261 (GFP fused to hNLRP3 residues 254-268 with C261S) (from UniProt Q96P20 254-268) (domain or fragment) | no binding
NLRP3 (overexpressed) (from UniProt Q96P20 1-1036) | binds
